Screen size: about 350,000 compounds; about 220 (0.063%) were called active. This list was built around the results that the source calls inconclusive (neither active nor inactive); the mix of calls is not that of the screen. Calls follow the shape of the dose curve; as a rule, active = well fitted activation curve with a large enough effect; inconclusive = small, poorly fitted or top-dose-only effect; inactive = no such curve, though single readings can be large or run the other way. Where the call is inconclusive, the potency comes from a doubtful curve fit.
test: qHTS for Activators of Integrin-Mediated Alleviation for Muscular Dystrophy; settings: alpha7betagal myoblasts, beta-gal FDG fluorescence, 48 h; activation: at 38.3 µM (top of the series); also: nearly all actives have a fitted effect of over 60% in size;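 as to activation: 100% = response of the positive control SU9516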
In short: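 Alpha7betagal+/- myoblasts (passage 13) were plated 16-24 hr, then exposed to compounds (1:260 dilution of DMSO stock) for 48 hours at 37C. After MPER lysis, β-galactosidase reporter activity was read as FDG fluorescence (ex 480/em 540) after 30 minutes.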
Potency is read from the fitted curve at half-maximal effect.

Which Potency does the source give for `CCCCCCc1nc(C(N)=O)c2[nH]c(=O)n(-c3ccccc3F)c2n1` here?
Its Potency is inconclusive: 3.55 µM [activator, single point].

With `COc1ccc(NC(=O)CN(C)S(=O)(=O)c2cnc[nH]2)cc1Cl` as the compound, how does the Potency read?
The Potency was inconclusive: 1 µM [activator, full curve, poor fit].

For `O=C(Nc1ccncc1)c1cc(S(=O)(=O)N2CCCC2)ccc1Cl`, which Potency is on record?
Its Potency is inconclusive: 12.6 µM [activator, single point].

For `CC1(C)CC2CC(C)(CN2S(=O)(=O)c2ccc(C(=O)Nc3cccc(S(=O)(=O)N4CCOCC4)c3)cc2)C1` (stereo not drawn), which “activation” value is on record?
The value was inactive: 1.24%.

With `O=[N+]([O-])c1ccc(-c2cn(-c3ccccc3F)c(=S)[nH]2)cc1` as the compound, how does the Potency read?
Its Potency is inconclusive: 5.62 µM [activator, full curve, poor fit].

For `Cc1ccccc1/C=C/c1cccc[n+]1C`, which Potency is on record?
The Potency was inconclusive: 28.2 µM [activator, single point].

Which Potency does the source give for `CNC(=O)Nc1ccc(S(N)(=O)=O)cc1` here?
The Potency was inconclusive: 4.47 µM [activator, single point].

Which Potency does the source give for `O=C(NC1CC1)C1CCCN1C(=O)NC1CCCCC1` (stereo not drawn) here?
Its Potency is inconclusive: 5.01 µM [activator, single point].

With `Cc1ccc(S(=O)(=O)N2CCCCC2)cc1NC(=O)c1c(-c2ccccc2)noc1C` as the compound, how does the Potency read?
Its Potency is inconclusive: 7.08 µM [activator, partial curve, poor fit].

With `O=C(Cc1ccccc1)N1CCN(c2ccc([N+](=O)[O-])cc2)CC1` as the compound, how does the Potency read?
The Potency was inconclusive: 1.41 µM [activator, single point].

With `O=C1NC(=O)C(c2ccccc2)(C2CCCC2)N1` (stereo not drawn) as the compound, how does the Potency read?
The Potency was inconclusive: 28.2 µM [activator, single point].

Which Potency does the source give for `COc1ccc(NC(=O)CNCc2ccc(Cl)cc2)cc1S(=O)(=O)N1CCOCC1` here?
The Potency was inconclusive: 5.01 µM [activator, single point].

With `OCC1(CCc2ccccc2)CCN(Cc2c(F)ccc(F)c2F)CC1` as the compound, how does the Potency read?
The Potency was inconclusive: 15.8 µM [activator, single point].

For `O=C(Nc1ccc(F)cc1)Nc1ccc(Oc2ncnc3cc(Cl)ccc23)nc1`, which Potency is on record?
Its Potency is inconclusive: 3.16 µM [activator, partial curve, poor fit].

Which Potency does the source give for `COc1ccc(C(=O)NNC(=O)CCCCC(=O)NNC(=O)c2ccc(OC)cc2)cc1` here?
The Potency was inconclusive: 11.2 µM [activator, partial curve, poor fit].

For `O=C(CSc1ccc2nnc(CCNC(=O)c3ccc(F)cc3)n2n1)NCC1CCCO1` (stereo not drawn), which Potency is on record?
The Potency was inconclusive: 10 µM [activator, partial curve, poor fit].

Which “activation” value does the source give for `CCc1cn(C2CC(O)C(CO)O2)c(=O)[nH]c1=O` (stereo not drawn) here?
Its value is inactive: -44.9%.

For `CCCSc1nc(=S)n(Cc2ccccc2)c(C)c1C(C)=O`, which “activation” value is on record?
Its value is inactive: -2.06%.

Which Potency does the source give for `Cc1ccc(C)c(N(CC(=O)N2CCCC2)S(C)(=O)=O)c1` here?
The Potency was inconclusive: 5.01 µM [activator, single point].

With `Cc1ccc(N2C(=O)CN(Cc3ccccc3)C2=S)cc1C` as the compound, how does the Potency read?
The Potency was inconclusive: 2.82 µM [activator, partial curve, poor fit].

For `Cc1c(Cl)cccc1NC(=O)CSc1nccn1C`, which Potency is on record?
The Potency was inconclusive: 5.01 µM [activator, single point].

Which “activation” value does the source give for `CC(=O)c1ccc2c(c1)Cc1cc(C(C)=O)ccc1-2` here?
The value was inactive: 20.4%.

Which “activation” value does the source give for `O=C(O)c1cc(-c2ccc(/C=C3/SC(=S)N(Cc4ccccc4)C3=O)o2)ccc1Cl` here?
Its value is inactive: -23%.

Which “activation” value does the source give for `CC(=O)Oc1ccc(/C=N/NC(=O)CCSc2ccccc2)cc1` here?
The value was inactive: 0.984%.

Which Potency does the source give for `CC(CNC(=O)c1cccs1)c1ccc([N+](=O)[O-])cc1` (stereo not drawn) here?
The Potency was inconclusive: 28.2 µM [activator, single point].

With `O=C(Nc1ccccc1C(=O)N1CCCC1)c1ccccc1` as the compound, how does the Potency read?
The Potency was inconclusive: 0.447 µM [activator, partial curve, poor fit].

With `CCN(CC)c1ccc2cc(-c3nc4ccccc4[nH]3)c(=O)oc2c1` as the compound, how does the “activation” value read?
Its value is inactive: -33.9%.

For `CCOC(=O)CN(C(=O)c1snc(C(N)=O)c1N)C(C(=O)NCCC(C)C)c1ccc(F)cc1` (stereo not drawn), which Potency is on record?
Its Potency is inconclusive: 3.16 µM [activator, partial curve, poor fit].

For `COc1ccc(NC2SC(=O)N(C)C2=O)cc1` (stereo not drawn), which Potency is on record?
Its Potency is inconclusive: 0.501 µM [activator, full curve, poor fit].

Which Potency does the source give for `CCN(C(=O)COC(=O)c1cc(-c2cccs2)nc2ccccc12)C1CCS(=O)(=O)C1` (stereo not drawn) here?
Its Potency is inconclusive: 28.2 µM [activator, single point].

Which Potency does the source give for `CCC(C)NC(=O)C1c2ccccc2Oc2ccccc21` (stereo not drawn) here?
Its Potency is inconclusive: 12.6 µM [activator, partial curve, poor fit].

Which “activation” value does the source give for `CCOC(=O)c1ccc(S(=O)(=O)N2CCN(C(=O)c3ccccn3)CC2)cc1` here?
Its value is inactive: 7.18%.

With `O=C1c2ccccc2NC(c2cccc(O)c2)N1Cc1ccco1` (stereo not drawn) as the compound, how does the Potency read?
The Potency was inconclusive: 28.2 µM [activator, single point].

Which “activation” value does the source give for `CCn1c(SCC(=O)N/N=C/c2ccc(OC)c(OC)c2)nc2ccccc21` here?
Its value is inactive: -6.99%.

With `O=C(C[n+]1cccc(O)c1)Nc1ccc(Br)cc1` as the compound, how does the Potency read?
The Potency was inconclusive: 10 µM [activator, partial curve, poor fit].

With `COC(=O)c1cccc(CSc2nc(-c3ccccc3)c(C#N)c(=O)[nH]2)c1` as the compound, how does the Potency read?
The Potency was inconclusive: 5.01 µM [activator, partial curve, poor fit].

With `Cc1cc(Cl)cc2c(N=Nc3ccccc3C(=O)O)c(O)[nH]c12` as the compound, how does the “activation” value read?
The value was inactive: -9.83%.

For `CC(C)c1ccc(C2CC(=O)c3cnc(N4CCc5ccccc5C4)nc3C2)cc1` (stereo not drawn), which Potency is on record?
The Potency was inconclusive: 28.2 µM [activator, single point].

For `Cn1nc(C(=O)NCc2ccc(F)cc2)c2c1-c1ccccc1S(=O)(=O)C2`, which activation is on record?
The activation was inconclusive: -39% [activator].

With `CCN(CC)CCCNC(=O)CSc1nc(-c2cccs2)cc(C(F)(F)F)n1` as the compound, how does the Potency read?
The Potency was inconclusive: 28.2 µM [activator, single point].

For `Cc1c(S(=O)(=O)Nc2cccc(Cl)c2)c(=O)n(C)c(=O)n1C`, which “activation” value is on record?
Its value is inactive: -1.73%.

Which Potency does the source give for `Nc1ccc(C(=O)OCC(=O)NC2CCS(=O)(=O)C2)cc1[N+](=O)[O-]` (stereo not drawn) here?
Its Potency is inconclusive: 3.55 µM [activator, single point].

For `O=C(Nc1ccc(N2CCCC2)cc1)c1cc([N+](=O)[O-])ccc1N1CCOCC1`, which Potency is on record?
Its Potency is inconclusive: 5.01 µM [activator, single point].

Source: PubChem BioAssay AID624291 (National Center for Advancing Translational Sciences (NCATS), 2012)
